Results deposited as PubChem BioAssay AID1159600 (NIAID, 2016)
Purpose: 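Effect of silencing core TLR signalling genes on R848-induced TNF reporter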 (primary screen). System: human THP-1 TNF reporter clone B5, made macrophage-like with PMA. Reagent: single siRNA against human genes. Time to read-out: 4 h ligand stimulation, assayed 48 to 72 h after siRNA transfection. Challenge: R848 (TLR7/8 agonist) for 4 hours before lysis; dose not given. Measured: 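TNF promoter firefly to renilla luciferase ratio after 4 h R848, scaled per plate by median and MAD, robust z-score against negative controls, mean of replicates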. Scale: TNF reporter z-score: higher = stronger TNF promoter reporter signal after R848. Active means: 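siRNAs graded by distance of mean z-score from zero in steps of 1, 1.5, 2 and 2.5; active calls sit at roughly -1.5 or below, or 1.5 or above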. Calls: active = strong change in TNF reporter (up or down); inactive = little change.
Here is one part, drawn at random, of 756 reagents. Of all reagents, 134 (18%) are marked active. 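Active includes both reduced and increased reporter signal, though most active siRNAs reduce it; R848 dose unknown.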 The numbers tell different reagents against one gene apart. Not given: the amount of reagent.

gene | reagent | TNF reporter z-score | call
MAP2K4 | 1 | -0.551 | inactive
MAP2K4 | 2 | -1.75 | active
MAP2K4 | 3 | 0.0873 | inactive
MAP2K4 | 4 | 0.615 | inactive
MAP2K4 | 5 | -0.562 | inactive
MAP2K4 | 6 | -0.00607 | inactive
PIK3CA | 1 | 0.164 | inactive
PIK3CA | 2 | 0.645 | inactive
PIK3CA | 3 | -0.908 | inactive
PIK3CA | 4 | -0.232 | inactive
PIK3CA | 5 | -0.371 | inactive
PIK3CA | 6 | -0.411 | inactive
MAPK9 | 1 | -0.665 | inactive
MAPK9 | 2 | -1.19 | inactive
MAPK9 | 3 | -0.051 | inactive
MAPK9 | 4 | -0.639 | inactive
MAPK9 | 5 | -1.21 | inactive
MAPK9 | 6 | 0.591 | inactive
TNFAIP3 | 1 | 0.829 | inactive
TNFAIP3 | 2 | 0.86 | inactive
TNFAIP3 | 3 | 1.79 | active
TNFAIP3 | 4 | 0.527 | inactive
TNFAIP3 | 5 | 1.03 | inactive
TNFAIP3 | 6 | -0.972 | inactive

Part of the list above in another layout:
PIK3CA #4 | TNF reporter z-score = -0.232; call = inactive
PIK3CA #5 | TNF reporter z-score = -0.371; call = inactive
